# In PubChem BioAssay AID493014 (National Center for Advancing Translational Sciences (NCATS), 2011):
# The list shows a part of the results. These are further read-outs of the screen, such as a control signal, another cell line or another target. No call is given for them. Most of these compounds were active or inconclusive in the main read-out, so they are no random draw. The note in brackets gives the kind of curve behind each potency; many fits are weak.
# Test: qHTS Assay to Find Inhibitors of Chronic Active B-Cell Receptor Signaling
# Conditions: ABC-DLBCL IkBa-CBG/CBR reporter, luminescence ratio (green luciferase fused to IkBa over red control in TMD8 lymphoma cells), 4 h
# Method in brief: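 Compounds up to 46 uM were incubated four hours with TMD8 cells whose green CBG68 luciferase is fused to IkappaBalpha; red CBR luminescence normalised the signal, and concentration-effect curves were fitted to fusion, red and ratio data.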
# [1] = measured here: CBR red luminescence, cell number
# [2] = measured here: IkBa-CBG green luminescence
Compound,AC50 [1],AC50 [2]
Cc1onc(-c2ccccc2)c1C(=O)NC(C)C,"25.9 µM [rising, partial curve, poor fit]",
Cc1cccc(-n2ncc(Cl)c(Cl)c2=O)c1,"10 µM [falling, partial curve]","11.2 µM [rising, partial curve, poor fit]"
CCc1nc2sc3c(c2c(=O)n1NC(=O)CCl)CCCC3,"29.1 µM [falling, single point]",
CCn1cc(C(=O)Nc2ccc3c(c2)OCCO3)c2cc(OC)c(OC)cc2c1=O,"35.5 µM [falling, single point]",
CCOC(=O)N1CCC(NC(=O)C2CCN(S(=O)(=O)N3CCCC3)CC2)CC1,"0.562 µM [rising, full curve, poor fit]",
CCCCc1ccc(-c2csc(/C(C#N)=C\c3ccco3)n2)cc1,"23.1 µM [rising, single point]",
C[C@H](CO)NC(=O)[C@@H]1C[C@H]1[C@@H](NP(=O)(c1ccccc1)c1ccccc1)c1ccccc1,"9.2 µM [rising, partial curve, poor fit]",
CCCCCCC1CC(=O)NC(=O)N1 (centres undefined),"12.6 µM [rising, single point]",
CCCCCSc1nnc(-c2ccccc2NC(C)=O)c(=O)[nH]1,"10 µM [falling, partial curve, poor fit]",
COc1ccc2nc(NC(=O)C3CCN(S(=O)(=O)c4cccc5nsnc45)CC3)sc2c1,"10 µM [falling, partial curve, poor fit]",
COc1ccc(Cl)cc1NC(=S)NNC(=O)c1cccs1,"35.5 µM [falling, single point]",
COc1cc(CN(C2CC2)S(=O)(=O)c2ccccc2Br)cc(OC)c1,"4.11 µM [rising, full curve, poor fit]",
Cc1ccc(C)c(OCC(=O)Nc2ccc(S(=O)(=O)N3CCN(C)CC3)cc2)c1,"0.411 µM [rising, full curve, poor fit]",
Cc1cc(Cl)cc(C)c1OCC(=O)N1CCN(c2ncccn2)CC1,"2.31 µM [rising, partial curve, poor fit]",
C#CCCCCCCC#CCN(C)C,"4.61 µM [rising, full curve]",
O=C(CCC(=O)NNC(=O)c1ccccc1[N+](=O)[O-])NCc1ccccc1,"4.47 µM [rising, full curve]",
CCOc1cc(C)nc(N2CCC(C(=O)Nc3ccccc3OCC)CC2)n1,"3.55 µM [rising, partial curve, poor fit]",
O=C(N/N=C/c1cccnc1)c1ccc(Cn2cc([N+](=O)[O-])cn2)o1,"15.8 µM [falling, partial curve, poor fit]",
O=C(Nc1sc2c(c1C(=O)O)CCCC2)c1cccs1,"2.51 µM [falling, full curve]",
CCC1CCCCN1Cc1c(O)ccc2c(=O)c(-c3ccccc3)coc12 (centres undefined),"11.2 µM [rising, partial curve, poor fit]",
COCCNC(=O)Nc1ccc2nc(-c3cccs3)c(-c3cccs3)nc2c1,"16.4 µM [falling, single point]",

# Reprinted at random: 2 entries already listed.
Compound,AC50 [1],AC50 [2]
CCn1cc(C(=O)Nc2ccc3c(c2)OCCO3)c2cc(OC)c(OC)cc2c1=O,"35.5 µM [falling, single point]",
COc1ccc(Cl)cc1NC(=S)NNC(=O)c1cccs1,"35.5 µM [falling, single point]",

# The listing continues:

Compound,AC50 [1],AC50 [2]
c1ccc2c(SCc3cn4ccccc4n3)nncc2c1,"4.47 µM [falling, partial curve, poor fit]",
CC(OC(=O)CNC(=O)c1ccc(F)cc1)C(=O)Nc1ccc(S(=O)(=O)N2CCOCC2)cc1 (centres undefined),"1.16 µM [rising, partial curve, poor fit]",
COC(=O)Cc1cccc2c(=O)c3ccccc3oc12,"0.1 µM [rising, full curve, poor fit]",
COc1ccc(N(C)C(=O)c2ccc3nc(-c4ccccc4)c(-c4ccccc4)nc3c2)cc1,,"11.2 µM [rising, partial curve, poor fit]"
CN(CC(=O)Nc1ccc(OC(F)(F)F)cc1)C(=O)c1ccc(N2CCCC2=O)cc1,"1.64 µM [rising, partial curve, poor fit]",
CC(C)c1ccc(S(=O)(=O)N2CCN(CC(O)CN3CCOCC3)CC2)cc1 (centres undefined),"23.1 µM [rising, partial curve, poor fit]",
CCN(CC)C(=O)[C@H]1C[C@H](CC(=O)NCc2ccco2)C(=O)N2CCc3c([nH]c4cc(-c5ccco5)ccc34)[C@]12C,"29.1 µM [falling, single point]",
COc1ccc(OC)c2c1sc(=NC(=O)C(C)(C)C)n2C,"2.06 µM [rising, partial curve, poor fit]",
C=CCc1cccc2cc(C(=O)Nc3ccccc3C(=O)O)c(=O)oc12,"10 µM [falling, partial curve, poor fit]",
COc1ccc(Cl)cc1NC(=O)CN(C)C(=O)C1CC(=O)N(Cc2ccc(C)cc2)C1 (centres undefined),"20.6 µM [falling, partial curve, poor fit]",
Cc1[nH]c2ccccc2c1/C=C(\C#N)C(=O)NC1CC1,"8.91 µM [falling, partial curve]",
COc1cccc(-c2ncc3ccccc3c2COC(=O)c2ccco2)c1,"9.2 µM [falling, partial curve]",
Cc1ccccc1OCC(O)CN1CCN(CCN2C(=O)c3cccc4cccc(c34)C2=O)CC1 (centres undefined),"10.3 µM [rising, partial curve]","16.4 µM [falling, partial curve, poor fit]"
Cc1cccc(C(=O)OCC(=O)NC2CC2)c1O,"2.31 µM [rising, partial curve, poor fit]",
CN(Cc1nc(-c2ccccn2)no1)S(=O)(=O)c1ccccc1,"0.651 µM [falling, full curve, poor fit]",
CCN1C(=O)[C@@H]2[C@@H](c3ccc(-c4ccc(OC)cc4)c(OC)c3)N3CCCC[C@@]3(C(=O)OC)[C@@H]2C1=O,"4.61 µM [rising, single point]",
COc1cccc(Cn2nnc(C(=O)NCCc3ccc(Cl)cc3)c2N)c1,"2.91 µM [rising, partial curve, poor fit]",
CCOC(=O)Cn1cc(/C=C/[N+](=O)[O-])c2ccccc21,,"35.5 µM [falling, single point]"
Oc1cc2c(cc1O)C1c3ccc(O)c(O)c3OCC1(O)C2 (centres undefined),"10 µM [falling, single point]",
CC(C)(C)SCCNC(=O)COc1ccccc1,"0.517 µM [rising, partial curve, poor fit]",
O=C(/C=C/c1cccs1)NC(=S)NNC(=O)c1ccccc1O,"12.6 µM [falling, partial curve, poor fit]",

# Single entries from the list.
# AC50 [1] with Cc1[nH]c2ccccc2c1/C=C(\C#N)C(=O)NC1CC1 reads 8.91 µM [falling, partial curve]
# AC50 [1] with CC(C)(C)SCCNC(=O)COc1ccccc1 reads 0.517 µM [rising, partial curve, poor fit]
# AC50 [1] with c1ccc2c(SCc3cn4ccccc4n3)nncc2c1 reads 4.47 µM [falling, partial curve, poor fit]
# AC50 [1] with COc1cccc(-c2ncc3ccccc3c2COC(=O)c2ccco2)c1 reads 9.2 µM [falling, partial curve]

# Additional entries follow.

Compound,AC50 [1],AC50 [2]
O=C(COc1ccc(Cl)cc1)N(Cc1ccccc1)c1nc(-c2ccccc2)cs1,"0.562 µM [rising, full curve, poor fit]",
Cc1ccc(C(=O)Nc2cccc3[nH]c(C(F)(F)F)nc23)cc1,"10 µM [falling, partial curve, poor fit]",
COC(=O)c1cc(-c2ccc(OC)cc2)n[nH]1,"14.1 µM [rising, partial curve, poor fit]",
Cc1cccc(C2(c3cccc(C)c3)OC(=O)c3ccccc32)c1,"22.4 µM [falling, partial curve, poor fit]",
CCC(NC(=O)c1cc(COc2cc(C)c(Cl)c(C)c2)on1)c1ccncc1 (centres undefined),"11.2 µM [falling, partial curve, poor fit]",
COc1ccc(Cl)cc1N(C)C(=O)CCc1nc(-c2ccc(C)cc2)no1,"35.5 µM [falling, single point]",
CC1CCC/C(=N/Nc2nc3ccccc3s2)C1 (centres undefined),"6.31 µM [falling, full curve]",
COc1ccc(Cl)cc1C(=O)Nc1ccc(S(=O)(=O)N2CCCC2)cc1,"20.6 µM [rising, single point]",
CCCCNCc1cc(Cl)c(OCCC)c(OCC)c1,"0.103 µM [falling, full curve, poor fit]",
Cc1ccc(OCCCN2CCOCC2)c([N+](=O)[O-])c1,"29.1 µM [rising, partial curve, poor fit]",
Cc1cc(O)c(C(C)C)cc1NC(=O)Nc1cccc2ccccc12,"35.5 µM [falling, single point]",
CCN1CCN(c2oc(COc3ccc(-c4ccccc4)cc3)nc2C#N)CC1,"35.5 µM [falling, single point]",
COc1cc(/C=C2/C(=N)N3C(SC)=NSC3=NC2=O)ccc1OC(=O)c1ccco1,"1.26 µM [rising, full curve]",
Cc1cc(-c2ccccc2)nc2cc(C(=O)OC(C)C)nn12,"31.6 µM [rising, single point]",
COc1ccc(S(=O)(=O)Nc2cc3c4c(oc3c3ccccc23)CCCC4=O)cc1,"23.1 µM [rising, single point]",
CN1C(=O)NC(c2ccc(O)cc2)C2=C1CN(c1ccc(O)cc1)C2=O (centres undefined),"25.1 µM [rising, single point]",
O=C(CC(=O)c1ccccc1)Nc1cccnc1Cl,"11.6 µM [falling, partial curve]",
O=C(Cn1c[n+](CC(=O)c2ccc([N+](=O)[O-])cc2)cn1)c1ccc([N+](=O)[O-])cc1,"12.6 µM [falling, single point]",
Cc1cccc(NC(=O)CSC2=NN3CCCC(=O)N=C3S2)c1C,"8.91 µM [rising, partial curve, poor fit]",
CCCCOc1ccccc1C1CC(=O)Nc2cc(C)c(C)cc21 (centres undefined),"14.1 µM [rising, partial curve, poor fit]",
